US20250085290A1
No constants are given. Whether binding was seen depends on the method and setting. Some binding calls cover weakened binding; strength is not graded here.

biological target: CD71 (UniProt P02786); test: CIS display panning, then ELISA

binding | Binder
binds | SEQ ID NO 63 (designed binder) MLSPPSNLRVTDVTSTSVTLSWKPPAPITGYSVTYNETTLDGEWKQVSVPGSETSYTVTGLKPGTEYVFSVNAVNGAKEGEPSQWVVVTT
binds | SEQ ID NO 61 (designed binder) MLSPPSNLRVTDVTSTSVTLSWKPPAPITGYAVYYNETWFQGEWKHVVVPGSETSYTVTGLKPGTEYYFHVEAVNGANPGKPSQHVVVTT
binds | SEQ ID NO 66 (designed binder) MLSPPSNLRVTDVTSTSVTLSWKPPAPITGYYVNYYEGPSDGEWKYVKVPGSETSYTVTGLKPGTEYWFWVQAVNGASVGPPSQDVGVTT
binds | SEQ ID NO 65 (designed binder) MLSPPSNLRVTDVTSTSVTLSWKPPAPITGYGVSYEEVYGFGEWKHVYVPGSETSYTVTGLKPGTEYVFSVLAVNGATFGPPSQWVFVTT
binds | SEQ ID NO 72 (designed binder) MLSPPSNLRVTDVTSTSVTLSWKPPAPITGYYVFYDETVFLGEWKHVYVPGSETSYTVTGLKPGTEYAFTVAAVNGAVQGNPSQGVVVTT
binds | SEQ ID NO 73 (designed binder) MLSPPSNLRVTDVTSTSVTLSWKPPAPITGYYVQYNETTLTGEWKQVRVPGSETSYTVTGLKPGTEYIFNVHAVNGAHYGDPSQVVTVTT
binds | SEQ ID NO 68 (designed binder) MLSPPSNLRVTDVTSTSVTLSWKPPAPITGYYVSYEEHPNDGEWKYVEVPGSETSYTVTGLKPGTEYTFGVDAVNGATFGPPSQWVFVTT
binds | SEQ ID NO 69 (designed binder) MLSPPSNLRVTDVTSTSVTLSWKPPAPITGYFVSYTEGLEQGEWKFVLVPGSETSYTVTGLKPGTEYTFGVDAVNGATFGPPSQWVFVTT
binds | SEQ ID NO 62 (designed binder) MLSPPSNLRVTDVTSTSVTLSWKPPAPITGYTVGYIEHPLSGEWKIVYVPGSETSYTVTGLKPGTEYTFGVDAVNGATFGPPSQWVFVTT
binds | SEQ ID NO 67 (designed binder) MLSPPSNLRVTDVTSTSVTLSWKPPAPITGYYVRYSESVDYGEWKWVLVPGSETSYTVTGLKPGTEYTFGVDAVNGATFGPPSQWVFVTT
binds | SEQ ID NO 70 (designed binder) MLSPPSNLRVTDVTSTSVTLSWKPPAPITGYWVTYEESTSHGEWKFVWVPGSETSYTVTGLKPGTEYTFGVDAVNGATFGPPSQWVFVTT
binds | SEQ ID NO 64 (designed binder) MLSPPSNLRVTDVTSTSVTLSWKPPAPITGYQVVYSESVGWGEWKQVKVPGSETSYTVTGLKPGTEYWFGVDAVNGATFGPPSQWVFVTT
binds | SEQ ID NO 71 (designed binder) MLSPPSNLRVTDVTSTSVTLSWKPPAPITGYGVLYQESLHDGEWKWVLVPGSETSYTVTGLKPGTEYTFGVDAVNGATFGPPSQWVFVTT
binds | SEQ ID NO 60 (designed binder) MLSPPSNLRVTDVTSTSVTLSWKPPAPITGYFVLYKELLQDGEWKTVLVPGSETSYTVTGLKPGTEYPFPVWAVNGALAGFPSQFVEVTT

Further lines, the binder ahead of its results:

Binder | binding
SEQ ID NO 58 (designed binder) MLSPPSNLRVTDVTSTSVTLSWKPPAPITGYWVSYLESTFIGEWKWVHVPGSETSYTVTGLKPGTEYVFVVQAVNGAPFGGPSQHVVVTT | binds
SEQ ID NO 51 (designed binder) MLSPPSNLRVTDVTSTSVTLSWKPPAPITGYIVFYGESLSEGEWKTVNVPGSETSYTVTGLKPGTEYTFGVDAVNGATFGPPSQWVFVTT | binds
SEQ ID NO 55 (designed binder) MLSPPSNLRVTDVTSTSVTLSWKPPAPITGYWVKYEEGPEYGEWKTVHVPGSETSYTVTGLKPGTEYTFGVDAVNGATFGPPSQWVFVTT | binds
SEQ ID NO 54 (designed binder) MLSPPSNLRVTDVTSTSVTLSWKPPAPITGYRVGYVEHLGAGEWKFVWVPGSETSYTVTGLKPGTEYTFGVDAVNGATFGPPSQWVFVTT | binds
SEQ ID NO 53 (designed binder) MLSPPSNLRVTDVTSTSVTLSWKPPAPITGYVVLYWEASVQGEWKWVLVPGSETSYTVTGLKPGTEYTFGVDAVNGATFGPPSQWVFVTT | binds
SEQ ID NO 57 (designed binder) MLSPPSNLRVTDVTSTSVTLSWKPPAPITGYVVVYQETIHPGEWKNVHVPGSETSYTVTGLKPGTEYWFGVDAVNGATFGPPSQWVFVTT | binds
SEQ ID NO 52 (designed binder) MLSPPSNLRVTDVTSTSVTLSWKPPAPITGYAVLYTETYYEGEWKQVHVPGSETSYTVTGLKPGTEYDFRVSAVNGATIGTPSQYVIVTT | binds
SEQ ID NO 59 (designed binder) MLSPPSNLRVTDVTSTSVTLSWKPPAPITGYIVHYSEFIFVGEWKHVLVPGSETSYTVTGLKPGTEYDFRVSAVNGATIGTPSQYVIVTT | binds
SEQ ID NO 56 (designed binder) MLSPPSNLRVTDVTSTSVTLSWKPPAPITGYPVHYAESDLKGEWKRVVVPGSETSYTVTGLKPGTEYVFIVQAVNGAVDGNPSQIVVVTT | binds
